For the assay, the target named is T1, CD4 (UniProt P01730 26-396).
T1 construct: also called sCD4
Description: SPR, single-shot kinetics.

B1: Mmos3.3 gp120 (global mosaic HIV Env protein) (other)
chain: SDNLWVTVYYGVPVWRDADTTLFCASDAKAYDTEVHNVWATHACVPTDPNPQEIHLENVTENFNMWKNNMVEQMQEDVISLWDQSLKPCVKLTPLCVTLNCTKANLTNINETTASNGIGNITDEVRNCSFNMTTLLSDKKRLVHALFYKLDIVPIKDNQNSSVSSGEYRLINCNTSVIKQACPKVTFDPIPIHYCTPAGYAILKCNDKNFNGTGPCKNVSSVQCTHGIKPVVSTQLLLNGSLAEEEIIIRSENLTNNAKTIIVHLNKSVEINCTRPSNNTRTSVRIGPGQVFYRTGDIIGDIRQAYCEINGTKWNETLRQVAKKLKEHFNKTIIFQPPSGGDLEITMHHFNCRGEFFYCNTTKLFNSTWIGNETMVEGNNNDTIILPCRIKQIINMWQGVGQAMYAPPISGIINCVSNITGILLTRDGGSGDNATETFRPGGGNIKDNWRSELYKYKVVEIEPLGIAPTKAKRRVVEREKR
For B1, binding was characterised by a dissociation constant (Kd) of 8.4 nM.

Values taken from patent US20160235836A1 (LOS ALAMOS NATIONAL SECURITY LC TAS, published 2016).
